# Measured values as given in PubChem BioAssay AID1671190 (National Center for Advancing Translational Sciences (NCATS), 2021).
# Chains of the proteins cited; added tags and fusions are not shown. Lines headed by an entry give the natural chain unless they say otherwise; changes in a name come on top.
# UniProt P18054: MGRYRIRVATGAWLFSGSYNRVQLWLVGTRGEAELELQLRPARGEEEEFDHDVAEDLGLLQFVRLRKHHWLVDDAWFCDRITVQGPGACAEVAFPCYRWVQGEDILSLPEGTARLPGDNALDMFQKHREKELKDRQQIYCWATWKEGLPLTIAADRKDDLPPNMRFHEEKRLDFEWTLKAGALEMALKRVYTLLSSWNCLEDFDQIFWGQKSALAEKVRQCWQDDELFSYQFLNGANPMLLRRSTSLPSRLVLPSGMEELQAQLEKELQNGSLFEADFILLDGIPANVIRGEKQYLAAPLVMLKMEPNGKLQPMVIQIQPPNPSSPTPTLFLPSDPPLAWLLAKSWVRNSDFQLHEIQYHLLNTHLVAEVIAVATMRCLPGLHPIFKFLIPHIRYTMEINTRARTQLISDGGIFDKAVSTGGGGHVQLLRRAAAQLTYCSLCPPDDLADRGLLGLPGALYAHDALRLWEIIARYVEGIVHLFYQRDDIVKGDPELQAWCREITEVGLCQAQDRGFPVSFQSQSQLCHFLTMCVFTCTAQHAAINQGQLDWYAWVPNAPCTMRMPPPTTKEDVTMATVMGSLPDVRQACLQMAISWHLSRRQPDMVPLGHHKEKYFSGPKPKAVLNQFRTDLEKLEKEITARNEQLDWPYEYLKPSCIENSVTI
# Several values for one entry are separate records, joined by “and”; a condition that tells them apart may be missing. Equal entries are not always repeated. Screen size: about 580,000 compounds; about 6,100 (1.1%) were called active. Inconclusive results, whose numbers are uncertain, are shown with a selection of clear calls. The call rests on the fitted dose curve; in most records, active means well fitted inhibition curve with a large enough effect; inconclusive means small, poorly fitted or top-dose-only effect, or another doubt; inactive means no such curve, though single readings can be large or run the other way. Where the call is inconclusive, the potency comes from a doubtful curve fit.
# Target: Polyunsaturated fatty acid lipoxygenase ALOX12 (Homo sapiens) (UniProt P18054)
# Assay: Primary qHTS assay for inhibitors of human arachidonate 12S-lipoxygenase (ALOX12): Round 2
# Settings: purified 12hLO, xylenol orange hydroperoxide absorbance; activity change, negative = inhibition: at 108 µM (top of the series) unless noted
# Procedure, shortened: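 Purified human 12hLO (150 nM final) in 25 mM Hepes, 0.01% Triton X-100, pH 7.0 was preincubated 15 min at room temperature with compound. Then 40 uM arachidonic acid was added, 30 min. Hydroperoxide was read by Fe-XO absorbance ratio 573/405 nm.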
# On the % scale 0 is the no-effect control and ±100 the full control effect; potency means the concentration at half of the fitted maximal effect.
SMILES,Potency,"activity change, negative = inhibition"
CCNC(=S)N/N=C(\C)c1cc2ccccc2o1,"inconclusive: 44.7 µM [inhibitor, partial curve, poor fit]",
Cc1ccc(CNC(=O)[C@H]2O[C@@H](n3cnc4c(N)ncnc43)[C@H](O)[C@@H]2O)o1,"inconclusive: 28.2 µM [inhibitor, single point]",
Nc1nc(Sc2c([N+](=O)[O-])cc(C(F)(F)F)cc2[N+](=O)[O-])n[nH]1,,inactive: 123%
O=C(NC1(C(F)(F)F)C(=O)Nc2c1c(=O)[nH]c(=O)n2-c1ccc(Cl)cc1)c1cccs1 (stereo not drawn),"inconclusive: 44.7 µM [inhibitor, single point]",
COc1ccc(CCNC(=S)N2CCC(C(=O)c3ccc(F)cc3)CC2)cc1OC,"inconclusive: 158 µM [inhibitor, partial curve, poor fit]",
Cc1noc(C)c1C(=O)Nc1nc(-c2ccc(F)c(F)c2)cs1,"inconclusive: 31.6 µM [inhibitor, partial curve]",
Cc1cccc(-c2ccc3ncnc(NCc4cccnc4)c3c2)c1,,inactive: 0.865%
CC(C)NCc1ccc(C(=O)O)cc1,"inconclusive: 44.7 µM [inhibitor, partial curve, poor fit]",
Cc1cccc(N(C)S(=O)(=O)c2cc(-c3cc(C)no3)ccc2C(C)C)c1,"inconclusive: 2.24 µM [inhibitor, full curve, poor fit]",
Nc1nnnn1/N=C/c1cccc(OCc2ccccc2Cl)c1,,inactive: 0%
COc1ccccc1CN1CCNc2cnc(-c3ccccc3)cc2C1,,inactive: 26.8% [at 176 µM]
NC(=O)COC(=O)c1ccccc1Nc1ccc(SC(F)F)cc1,"inconclusive: 112 µM [inhibitor, single point]",
Cn1ccnc1CNC(=O)CC(c1cccc(O)c1)c1ccccc1Cl (stereo not drawn),,inactive: 10.1%
Cc1sc2nc(SCC(=O)Nc3ccc(S(N)(=O)=O)cc3)[nH]c(=O)c2c1C,,inactive: 0%
CCc1ncc(C(=O)N[C@@H]2c3ccccc3C3(CCNCC3)[C@H]2OC)cn1,"inconclusive: 39.8 µM [inhibitor, single point]",
Cc1ccc(-c2cc(C(=O)N3CCOCC3)c3ccccc3n2)o1,"inconclusive: 56.2 µM [inhibitor, partial curve, poor fit]",
O=C(Cc1ccc(F)cc1)NCCc1c[nH]c2ccccc12,"inconclusive: 2.24 µM [inhibitor, full curve, poor fit]",
COc1ccc(CNC(=O)C[C@H]2C[C@H](C(=O)N3CCOCC3)[C@@]3(C)c4[nH]c5ccc(Cl)cc5c4CCN3C2=O)cc1OC,"inconclusive: 44.7 µM [inhibitor, single point]",
Cc1cc2nc3c(=O)n(C4CCCCC4)c(=O)[nH]c3nc2cc1N,,inactive: -17%
[O-]/C(=C(\C(=S)Nc1cccc2ccccc12)[n+]1cccc(CO)c1)c1ccc(Cl)s1,"inconclusive: 4.47 µM [inhibitor, full curve, poor fit]",
COc1ccc(CNC(=O)C2CCN(S(=O)(=O)c3ccccc3)CC2)cc1,,inactive: -4.83%

# In a second layout: entries from further up.
SMILES	Potency	activity change, negative = inhibition
Cc1ccc(CNC(=O)[C@H]2O[C@@H](n3cnc4c(N)ncnc43)[C@H](O)[C@@H]2O)o1	inconclusive: 28.2 µM [inhibitor, single point]	
Nc1nc(Sc2c([N+](=O)[O-])cc(C(F)(F)F)cc2[N+](=O)[O-])n[nH]1		inactive: 123%
Cn1ccnc1CNC(=O)CC(c1cccc(O)c1)c1ccccc1Cl (stereo not drawn)		inactive: 10.1%

# Some of the entries so far, bar-delimited:
SMILES | Potency | activity change, negative = inhibition
Cc1ccc(CNC(=O)[C@H]2O[C@@H](n3cnc4c(N)ncnc43)[C@H](O)[C@@H]2O)o1 | inconclusive: 28.2 µM [inhibitor, single point] | 
Nc1nc(Sc2c([N+](=O)[O-])cc(C(F)(F)F)cc2[N+](=O)[O-])n[nH]1 |  | inactive: 123%

# (next part)

SMILES,Potency,"activity change, negative = inhibition"
CC/C(=C(/c1ccccc1)c1ccc(OCC[N+](C)(C)C)cc1)c1ccccc1,active: 44.7 µM,
CCCCCC(=O)N(CN1C(=O)CCC1=O)c1ccccc1,,inactive: 17.9%
Cc1ccc(C)c(C(=O)N2CCC3(CC2)NC(=O)N(c2ccc(F)cc2)N3)c1,"inconclusive: 4.47 µM [inhibitor, full curve]",
CC(=O)c1ccc(OC(=O)c2nn(C(C)C)c(=O)c3ccccc23)cc1,"inconclusive: 44.7 µM [inhibitor, partial curve, poor fit]",
CCn1c(COc2ccc(C)cc2)nnc1SCC(=O)Nc1ccc(S(N)(=O)=O)cc1,"inconclusive: 56.2 µM [inhibitor, single point]",
CCOc1ccc(NC(C)=O)c(N)c1,"inconclusive: 2.51 µM [inhibitor, full curve, poor fit]",
COc1ccc(S(=O)(=O)Nc2ccc(CC#N)cc2)cc1,"inconclusive: 1.78 µM [inhibitor, partial curve, poor fit]",
CC(=O)Nc1ccc(NC2=C(C(N)=O)S(=O)(=O)c3ccccc32)cc1,"inconclusive: 8.91 µM [inhibitor, full curve, poor fit]",
CCOC(=O)c1c(C)[nH]c(CCC(=O)NC(C)c2ccccc2)c1C (stereo not drawn),"inconclusive: 35.5 µM [inhibitor, full curve, poor fit]",
CCN(CC)CCCNc1sc(S(=O)(=O)c2ccccc2)nc1S(=O)(=O)c1ccc(Cl)cc1,"inconclusive: 50.1 µM [inhibitor, partial curve, poor fit]",
Cn1nc(C(=O)NC2CCCc3c2[nH]c2ccccc32)c2ccccc2c1=O (stereo not drawn),"inconclusive: 50.1 µM [inhibitor, partial curve]",
CCc1cccc2c(C(=O)Cn3cc(S(=O)(=O)N(CC)CC)ccc3=O)c[nH]c12,"inconclusive: 31.6 µM [inhibitor, partial curve]",
CC(C)=CCC[C@H](C)CC1Cc2[nH]c(=S)[nH]c(=O)c2C(c2ccc(Cl)cc2)O1 (stereo partly drawn),"inconclusive: 44.7 µM [inhibitor, partial curve, poor fit]",
CCCCNC(=O)c1ccc(NC(=O)CCc2ccccc2)cc1,,inactive: 11.1%
Cc1ccc(Cl)cc1NC(=O)Cn1c(=O)n(CCC(=O)NCc2ccc3c(c2)OCO3)c(=O)c2sccc21,"inconclusive: 56.2 µM [inhibitor, partial curve, poor fit]",
Cc1ccc(-c2ccc(OC(=O)c3ccccc3)c(C)c2)cc1,,inactive: -3.57%
CCCCCn1nc(C(=O)N2CCN(c3ccc(F)cc3)CC2)c2ccccc2c1=O,"inconclusive: 35.5 µM [inhibitor, single point]",
C=CCn1c(=S)[nH]c2scc(-c3cccs3)c2c1=O,,inactive: 14.6%
O=S(=O)(c1ccccc1)c1nc(-c2ccccc2Cl)oc1NCCCN1CCOCC1,,inactive: -13.7%
COc1cccc(C2C3=C(COC3=O)Nc3c2c(=O)n(C)c(=O)n3C)c1OC (stereo not drawn),"inconclusive: 100 µM [inhibitor, single point]",
Cc1nn(C)c2nc(-c3ccccn3)nc(N3CCC4(CC3)COC(=O)O4)c12,,inactive: 52.4%

SMILES,Potency,"activity change, negative = inhibition"
COc1cccc(CN2CCN(c3cccc(C(F)(F)F)c3)CC2)c1OC,"inconclusive: 1.12 µM [inhibitor, full curve, poor fit]",
CCCSc1nc2c(c(=O)[nH]c(=O)n2C)n1Cc1cccc(Br)c1,"inconclusive: 100 µM [inhibitor, partial curve, poor fit]",
Nc1nc(NCc2ccco2)nc(N2CCN(Cc3ccccc3)CC2)c1[N+](=O)[O-],"inconclusive: 126 µM [inhibitor, single point]",
Cc1c(C(=O)Nc2ccc(-n3c(C)nc4ccccc4c3=O)cc2)cccc1[N+](=O)[O-],,inactive: -11.1%
CC1=C(c2ccc(F)cc2)S(=O)(=O)N=C1N1CCC(C(=O)NCCc2ccccc2C)CC1,"inconclusive: 50.1 µM [inhibitor, partial curve, poor fit]",
C#CCNC(=O)c1c(-c2ccc(F)cc2)noc1[C@H](C)O,"inconclusive: 141 µM [inhibitor, partial curve, poor fit]",
CC1(C(=O)O)CCCN1C(=O)c1ccc(Cl)cc1Cl (stereo not drawn),,inactive: -8.77%
O=C(Nc1ccccc1)Nc1ccc(=O)n2c1[C@@H]1C[C@@H](CN(C(=O)COc3ccccc3)C1)C2,"inconclusive: 17.8 µM [inhibitor, partial curve, poor fit]",
CCOc1ccc(CC(=O)Nc2cccn3nc(C)nc23)cc1,"inconclusive: 8.91 µM [inhibitor, partial curve, poor fit]",
CCOc1cccc(/C=N/Nc2nc(N3CCCC3)nc(N3CCCC3)n2)c1O,"inconclusive: 63.1 µM [inhibitor, partial curve, poor fit]",
CCCOc1ccc(C(=O)Nc2c(NC3CCCC3)c3ccccc3oc2=O)cc1,"inconclusive: 44.7 µM [inhibitor, partial curve, poor fit]",
Cc1ccc(CNC(=O)c2ccc(CSCc3cccc(C)c3)o2)cc1,"inconclusive: 44.7 µM [inhibitor, partial curve] and inconclusive: 44.7 µM [inhibitor, partial curve, poor fit]",
CN(c1ccccc1)c1cc(=O)c2ccnc(NCC3CCOCC3)c2o1,"inconclusive: 7.94 µM [inhibitor, full curve, poor fit]",
O=C1c2ccccc2NC(c2cccc(O)c2)N1O (stereo not drawn),"inconclusive: 35.5 µM [inhibitor, single point]",
CCCNC(=O)CN1CCN(c2cc3ccccc3c(Cl)n2)CC1,"inconclusive: 141 µM [inhibitor, partial curve, poor fit]",
Cc1cc(C)cc(-n2c(SCC(=O)N3CCOCC3)nc3c([nH]c4ccccc43)c2=O)c1,"inconclusive: 112 µM [inhibitor, partial curve, poor fit]",
CCn1c(/C=C/Nc2ccccc2)[n+](CC)c2cc(Cl)c(Cl)cc21,"inconclusive: 35.5 µM [inhibitor, partial curve, poor fit]",
CCOc1nc2cccc(C(=O)OC(C)OC(=O)OC3CCCCC3)c2n1Cc1ccc(-c2ccccc2-c2nn[nH]n2)cc1 (stereo not drawn),"inconclusive: 44.7 µM [inhibitor, partial curve, poor fit]",
COc1cccc(-c2nnc(-c3ccccc3NC(=O)c3ccc(F)cc3F)o2)c1,,inactive: 0%
CN(C)/C=C\C(=O)c1ccc(Br)cc1,active: 3.98 µM,
COc1ccc(Nc2nc3ccccc3s2)cc1,,inactive: -0.969%
